According to PubChem BioAssay AID445 (National Center for Advancing Translational Sciences (NCATS), 2006):
Some of the results follow. These are further read-outs of the screen, such as a control signal, another cell line or another target. No call is given for them. Compounds called inactive in the main read-out are mostly missing here. Words in brackets tell the shape of the fitted curve; partial curves, single points and poor fits give uncertain potencies.

Assay: IkB Signaling
Details: ABC-DLBCL IkBa-CBG/CBR dual luciferase ratio (green luciferase fused to IkBa over red control in OCI-Ly3 lymphoma cells), 4 h; measured here: control luc red channel unless noted
In short: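 In this assay, an IκBα–CBG68 fusion accumulates when IKK-driven degradation is blocked; native CBR normalizes for cell number. OCI-Ly3 cells were treated 4 h with compound and doxycycline, then green and red light read after Chroma-Glo addition.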

SMILES	AC50
Cc1cc(C(=O)NCc2ccccc2Cl)c2c(C)nn(-c3cccc(F)c3)c2n1	3.98 µM [falling, partial curve]
Cc1ccc2oc(=O)n(CCNC(=O)Nc3ccc(Cl)cc3)c2c1	15.8 µM [falling, partial curve]
O=C(NCC(c1ccco1)S(=O)(=O)c1cccs1)c1ccc(Cl)cc1 (stereo not drawn)	0.126 µM [falling, partial curve, poor fit]
CCCN(C(=O)Nc1cn(CC(C)C)c(=O)c2ccccc12)c1ccc(F)cc1	25.1 µM [falling, partial curve, poor fit]
Cc1ccc(C(=O)Nc2ccc3oc(-c4ccccc4C)nc3c2)cc1	0.316 µM [falling, full curve, poor fit]
CCCC(=O)c1ccc(N2CCN(C(=O)c3ccccc3)CC2)c(F)c1	12.6 µM [falling, partial curve]
CCCCNC(=O)c1ccc2c(c1)NC(=O)C(CS(=O)(=O)Cc1ccc(C)cc1)N2 (stereo not drawn)	1 µM [rising, partial curve, poor fit]
CCCCN(C)S(=O)(=O)c1ccc(C(=O)Nc2ccc(-c3nc4ccc(C)cc4s3)cc2)cc1	1.26 µM [rising, partial curve]
Cc1cc(NC(=O)c2cccn2-c2nnc(N3CCCCC3)s2)ccc1Br	10 µM [falling, partial curve, poor fit]
CCC1CN(C(=O)Nc2cc(Cl)c(OC)cc2OC)c2ccccc2O1 (stereo not drawn)	2.51 µM [rising, partial curve]
COc1cccc(NC(=O)c2oc3ccc(S(=O)(=O)N4CCCCCC4)cc3c2C)c1	10 µM [falling, partial curve]
COc1ccccc1NC(=O)C1CCCN(c2ncnc3onc(-c4ccc(F)cc4)c23)C1 (stereo not drawn)	0.316 µM [falling, full curve, poor fit]
Cc1ccc(NC(=O)c2ccc3snnc3c2)cc1C	0.126 µM [rising, full curve]
COc1cccc(NC(=O)C2CCN(S(=O)(=O)c3ccc4[nH]c5c(c4c3)CCCCC5)CC2)c1	31.6 µM [falling, single point]
COC(=O)c1ccccc1NC(=O)c1nn(-c2ccc(OC)cc2)c(=O)c2c1c1ccccc1n2C	0.794 µM [rising, full curve, poor fit]
Cc1cc(C)n(-c2nc(C)c(C)c(=O)n2CC(=O)Nc2cccc([N+](=O)[O-])c2)n1	3.98 µM [falling, partial curve]
COc1ccc(OC)c(NC(=O)N2CC3CCCN3c3ccccc32)c1 (stereo not drawn)	12.6 µM [falling, partial curve]
CCOC(=O)c1cccc(NC(=O)N2CC=C(c3c[nH]c4ccccc34)CC2)c1	7.94 µM [falling, full curve]
COCCNc1oc(-c2ccc(OC)cc2)nc1C#N	2.51 µM [rising, partial curve]
COc1ccccc1N1CCN(Cc2nc(N)nc(Nc3ccc(C)c(Cl)c3)n2)CC1	6.31 µM [falling, partial curve]
Cc1cc(Nc2ccc(Br)c(C)c2)n2nc(-c3ccco3)nc2n1	10 µM [falling, partial curve]

SMILES	AC50
Cc1cc(C)n2nc(CNS(=O)(=O)c3ccccc3)nc2n1	39.8 µM [falling, single point]
O=C(CSc1nnnn1-c1ccc2c(c1)OCCO2)Nc1nc2c(s1)CCCC2	10 µM [falling, partial curve]
CCOC(=O)c1ccccc1NC(=O)COC(=O)CC(C)(C)CC1=NS(=O)(=O)c2ccccc2N1	20 µM [falling, partial curve]
Fc1cc(Br)ccc1Nc1nc2ccccc2n2nnnc12	10 µM [falling, partial curve]
Cc1cccc(Nc2nnc(-c3ccc(C)c(S(=O)(=O)N4CCN(C)CC4)c3)c3ccccc23)c1	25.1 µM [falling, partial curve]
Cc1ccc(Cl)cc1NC(=O)Cn1c(=O)n(C(C)C)c(=O)c2oc3ccccc3c21	1 µM [rising, full curve]
Cc1nn2c(=O)cc(COC(=O)c3cccc(NC(=O)c4ccc(F)cc4)c3)nc2s1	1 µM [falling, full curve]
CCn1c(SCC(=O)N(C(C)C)C(C)C)nnc1-c1cc2ccccc2cc1O	6.31 µM [falling, partial curve]
CC(C)CCNC(=O)C(=O)Nc1c2c(nn1-c1ccc(Cl)cc1)CSC2	15.8 µM [rising, partial curve]
COC(=O)c1c(NC(=O)c2ccco2)sc(C(=O)N2CCCC2)c1C	5.01 µM [falling, partial curve]
Cc1ccc(-n2nc(-c3ccccc3)c3cnc4cc5c(cc4c32)OCO5)cc1C	20 µM [rising, partial curve]
CC(=O)Nc1cccc(NC(=O)CSc2ccc(-c3sc(-c4ccccc4)nc3C)nn2)c1	3.16 µM [falling, full curve]
O=C(O)CCc1ccc(-c2ccccc2)n1-c1ccc(C(=O)O)cc1	31.6 µM [falling, partial curve]
COc1cc(-c2nc(-c3ccc(NC(=O)c4ccc5c(c4)OCO5)cc3)no2)cc(OC)c1OC	7.94 µM [falling, partial curve]
COc1ccc(OC)c(NC(=O)CC(=O)Nc2ccc3nc4n(c(=O)c3c2)CCCCC4)c1	12.6 µM [falling, partial curve]
CCOc1ccccc1C(=O)N1CCC(c2nc3ccccc3o2)CC1	31.6 µM [falling, single point]
Cc1ccc(C2CCN(C(=O)c3cnn(-c4ccc(C)c(C)c4)c3C3CCN(C(=O)OC(C)(C)C)CC3)C2)cc1 (stereo not drawn)	25.1 µM [falling, partial curve]
Cc1[nH]c2ccccc2c1NC(=O)CN1CCN(c2cccc(C(F)(F)F)c2)CC1	15.8 µM [falling, partial curve]
CCOC(=O)SC1=N/C(=C\c2ccc(N(C)C)cc2)C(=O)S1	39.8 µM [falling, single point]
COc1cccc(NC(=O)CSc2c3c(nc4ccccc24)CCCC3)c1	5.01 µM [falling, partial curve]
COc1ccc(-c2cc3nc(C)c(CCC(=O)NC(C)c4ccccc4)c(C)n3n2)c(OC)c1 (stereo not drawn)	0.794 µM [falling, full curve]

Entries from the list above with a Cl atom:
SMILES	AC50
Cc1cc(C(=O)NCc2ccccc2Cl)c2c(C)nn(-c3cccc(F)c3)c2n1	3.98 µM [falling, partial curve]
Cc1ccc2oc(=O)n(CCNC(=O)Nc3ccc(Cl)cc3)c2c1	15.8 µM [falling, partial curve]
O=C(NCC(c1ccco1)S(=O)(=O)c1cccs1)c1ccc(Cl)cc1 (stereo not drawn)	0.126 µM [falling, partial curve, poor fit]
CCC1CN(C(=O)Nc2cc(Cl)c(OC)cc2OC)c2ccccc2O1 (stereo not drawn)	2.51 µM [rising, partial curve]
COc1ccccc1N1CCN(Cc2nc(N)nc(Nc3ccc(C)c(Cl)c3)n2)CC1	6.31 µM [falling, partial curve]
Cc1ccc(Cl)cc1NC(=O)Cn1c(=O)n(C(C)C)c(=O)c2oc3ccccc3c21	1 µM [rising, full curve]
CC(C)CCNC(=O)C(=O)Nc1c2c(nn1-c1ccc(Cl)cc1)CSC2	15.8 µM [rising, partial curve]

3 structures out of the list, arranged by SMILES length, smallest number first:
SMILES	AC50
Cc1nn2c(=O)cc(COC(=O)c3cccc(NC(=O)c4ccc(F)cc4)c3)nc2s1	1 µM [falling, full curve]
COc1ccc(-c2cc3nc(C)c(CCC(=O)NC(C)c4ccccc4)c(C)n3n2)c(OC)c1 (stereo not drawn)	0.794 µM [falling, full curve]
CCOC(=O)c1ccccc1NC(=O)COC(=O)CC(C)(C)CC1=NS(=O)(=O)c2ccccc2N1	20 µM [falling, partial curve]

The list continues:

SMILES	AC50
COc1ccc(-c2noc(CN(C)S(=O)(=O)c3ccc(C)cc3)n2)cc1	12.6 µM [falling, partial curve]
Cc1nn(C(=O)c2cccc([N+](=O)[O-])c2C)c(C)c1S(=O)(=O)N1CCCCCC1	6.31 µM [falling, full curve]
CCOC(=O)c1cccc(NC(=O)CN(c2ccc(C)cc2)S(=O)(=O)c2c(C)noc2C)c1	3.98 µM [falling, partial curve]
COc1ccc(NC(=O)c2ccco2)cc1NC(=O)c1ccc(C#N)cc1F	2 µM [rising, full curve]
COc1ccccc1-c1cc(C(=O)N2CCN(c3ccc(F)cc3)CC2)no1	0.2 µM [falling, full curve]
Cc1c(C(=O)Nc2ccc(F)c(Cl)c2)sc2nc3n(c(=O)c12)CCC3	25.1 µM [falling, single point]
O=C(NCc1ccco1)Nc1cccs1	31.6 µM [rising, partial curve] [measured here: IkB-luc green channel]
O=C(NCCc1ccccc1)C1CCN(c2nc3ccccc3nc2C(F)(F)F)CC1	6.31 µM [rising, partial curve]
COc1ccccc1N1CCN(c2ncnc3c2cnn3-c2ccc(C)cc2)CC1	3.16 µM [falling, partial curve]
FC(F)(F)c1cc(Nc2nc3ccccc3c3nncn23)ccc1Cl	39.8 µM [falling, single point]
CCCCCSc1nnc2c(n1)[nH]c1c(C)cccc12	0.0631 µM [rising, full curve]
CCCNC(=O)c1cnn(-c2ccc(C)c(C)c2)c1C1CCN(C(=O)OC(C)(C)C)CC1	31.6 µM [falling, partial curve]
Cc1cccc(CN2CCN(CC(=O)NCCc3ccc(Cl)cc3)C2=O)c1	10 µM [falling, partial curve]
Cn1nnnc1Sc1ncnc2scc(-c3ccccc3)c12	7.94 µM [falling, partial curve]
CCOC(=O)N1CCC2(CC1)C(C#N)=C(N)Oc1c2c(C)nn1-c1cccc(Cl)c1	12.6 µM [falling, partial curve]
COc1ccc(Cl)cc1NC(=O)CSc1nc2c(oc3ccccc32)c(=O)n1Cc1ccco1	2 µM [rising, partial curve]
CCOC(=O)c1ccccc1NC(=O)CN1C(=O)CC(c2ccccc2)Sc2ccccc21 (stereo not drawn)	0.158 µM [falling, full curve]
CCOc1cc2c(cc1OCC)C(CC(=O)O)N(C(=O)Nc1ccc(Br)c(C)c1)CC2 (stereo not drawn)	20 µM [falling, partial curve]
C=CCSc1nnc(CSc2nc3sc4c(c3c(=O)[nH]2)CCCC4)n1-c1ccccc1	20 µM [falling, partial curve]
CCOc1ccc(N(Cc2ccccc2)C(=O)c2nc(SC)ncc2Cl)cc1	12.6 µM [falling, partial curve]
Cc1nn(C)c2c1c(C(F)(F)F)cc(=O)n2Cc1ccc(Br)cc1F	0.631 µM [falling, full curve]
